Laboratory results from doi:10.1101/353086.
These are yes or no findings as the source states them, for the method shown. Binding seen in cells or lysates may run through a third protein. Here binding means that the protein was enriched with, or labelled near, the bait; the list need not be complete. For some of these results: Tags and fused reporters may be left off the sequences shown.

Sequences of proteins named here, by UniProt entry; tags and fusion partners are left off. Residues count along the entry.
UniProt Q00610: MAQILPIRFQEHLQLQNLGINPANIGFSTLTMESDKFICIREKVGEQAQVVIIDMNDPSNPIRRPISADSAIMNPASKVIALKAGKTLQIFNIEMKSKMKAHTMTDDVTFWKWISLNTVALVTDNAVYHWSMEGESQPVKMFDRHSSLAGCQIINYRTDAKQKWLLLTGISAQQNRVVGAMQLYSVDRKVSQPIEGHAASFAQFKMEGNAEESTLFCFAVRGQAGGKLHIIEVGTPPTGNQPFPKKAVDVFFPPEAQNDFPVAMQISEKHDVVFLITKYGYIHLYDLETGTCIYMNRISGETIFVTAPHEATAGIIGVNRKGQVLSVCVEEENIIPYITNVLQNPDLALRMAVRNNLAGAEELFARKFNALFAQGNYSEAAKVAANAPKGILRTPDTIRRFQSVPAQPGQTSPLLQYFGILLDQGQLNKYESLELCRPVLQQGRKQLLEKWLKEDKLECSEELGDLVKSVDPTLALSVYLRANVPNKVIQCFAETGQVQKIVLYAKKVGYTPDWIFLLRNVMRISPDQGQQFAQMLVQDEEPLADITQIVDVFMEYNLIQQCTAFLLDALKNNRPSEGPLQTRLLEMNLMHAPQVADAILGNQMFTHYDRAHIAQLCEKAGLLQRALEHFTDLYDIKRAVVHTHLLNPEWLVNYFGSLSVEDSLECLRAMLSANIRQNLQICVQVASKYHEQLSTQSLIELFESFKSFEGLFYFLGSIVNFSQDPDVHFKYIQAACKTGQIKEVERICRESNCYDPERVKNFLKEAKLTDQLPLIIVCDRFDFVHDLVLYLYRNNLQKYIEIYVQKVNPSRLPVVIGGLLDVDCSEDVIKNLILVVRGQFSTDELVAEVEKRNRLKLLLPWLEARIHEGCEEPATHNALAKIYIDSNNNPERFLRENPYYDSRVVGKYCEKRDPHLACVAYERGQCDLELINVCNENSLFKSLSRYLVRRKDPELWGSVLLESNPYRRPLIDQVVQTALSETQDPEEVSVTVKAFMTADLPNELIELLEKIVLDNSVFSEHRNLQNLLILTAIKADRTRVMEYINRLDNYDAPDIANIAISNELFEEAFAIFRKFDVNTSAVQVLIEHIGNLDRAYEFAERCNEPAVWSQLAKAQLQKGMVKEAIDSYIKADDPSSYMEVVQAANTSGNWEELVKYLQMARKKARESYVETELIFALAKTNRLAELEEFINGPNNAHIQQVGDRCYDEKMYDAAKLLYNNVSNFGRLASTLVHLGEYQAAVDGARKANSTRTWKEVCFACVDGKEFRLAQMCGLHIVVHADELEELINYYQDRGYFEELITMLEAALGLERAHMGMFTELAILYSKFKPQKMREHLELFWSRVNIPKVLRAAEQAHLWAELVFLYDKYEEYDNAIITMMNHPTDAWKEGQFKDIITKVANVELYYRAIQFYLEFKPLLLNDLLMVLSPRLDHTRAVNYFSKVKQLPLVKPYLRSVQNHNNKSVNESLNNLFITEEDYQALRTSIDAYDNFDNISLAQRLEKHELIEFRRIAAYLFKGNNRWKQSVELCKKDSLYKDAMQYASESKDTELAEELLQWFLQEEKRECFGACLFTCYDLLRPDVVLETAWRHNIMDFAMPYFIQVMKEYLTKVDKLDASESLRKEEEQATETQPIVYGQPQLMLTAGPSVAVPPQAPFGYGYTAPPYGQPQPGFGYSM
UniProt P62330: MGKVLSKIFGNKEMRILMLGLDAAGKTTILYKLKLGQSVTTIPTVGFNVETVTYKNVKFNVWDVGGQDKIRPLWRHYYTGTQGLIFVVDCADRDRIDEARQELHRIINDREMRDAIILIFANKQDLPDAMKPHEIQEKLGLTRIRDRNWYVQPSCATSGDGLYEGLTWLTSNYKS
UniProt P11717, residues 41-2491: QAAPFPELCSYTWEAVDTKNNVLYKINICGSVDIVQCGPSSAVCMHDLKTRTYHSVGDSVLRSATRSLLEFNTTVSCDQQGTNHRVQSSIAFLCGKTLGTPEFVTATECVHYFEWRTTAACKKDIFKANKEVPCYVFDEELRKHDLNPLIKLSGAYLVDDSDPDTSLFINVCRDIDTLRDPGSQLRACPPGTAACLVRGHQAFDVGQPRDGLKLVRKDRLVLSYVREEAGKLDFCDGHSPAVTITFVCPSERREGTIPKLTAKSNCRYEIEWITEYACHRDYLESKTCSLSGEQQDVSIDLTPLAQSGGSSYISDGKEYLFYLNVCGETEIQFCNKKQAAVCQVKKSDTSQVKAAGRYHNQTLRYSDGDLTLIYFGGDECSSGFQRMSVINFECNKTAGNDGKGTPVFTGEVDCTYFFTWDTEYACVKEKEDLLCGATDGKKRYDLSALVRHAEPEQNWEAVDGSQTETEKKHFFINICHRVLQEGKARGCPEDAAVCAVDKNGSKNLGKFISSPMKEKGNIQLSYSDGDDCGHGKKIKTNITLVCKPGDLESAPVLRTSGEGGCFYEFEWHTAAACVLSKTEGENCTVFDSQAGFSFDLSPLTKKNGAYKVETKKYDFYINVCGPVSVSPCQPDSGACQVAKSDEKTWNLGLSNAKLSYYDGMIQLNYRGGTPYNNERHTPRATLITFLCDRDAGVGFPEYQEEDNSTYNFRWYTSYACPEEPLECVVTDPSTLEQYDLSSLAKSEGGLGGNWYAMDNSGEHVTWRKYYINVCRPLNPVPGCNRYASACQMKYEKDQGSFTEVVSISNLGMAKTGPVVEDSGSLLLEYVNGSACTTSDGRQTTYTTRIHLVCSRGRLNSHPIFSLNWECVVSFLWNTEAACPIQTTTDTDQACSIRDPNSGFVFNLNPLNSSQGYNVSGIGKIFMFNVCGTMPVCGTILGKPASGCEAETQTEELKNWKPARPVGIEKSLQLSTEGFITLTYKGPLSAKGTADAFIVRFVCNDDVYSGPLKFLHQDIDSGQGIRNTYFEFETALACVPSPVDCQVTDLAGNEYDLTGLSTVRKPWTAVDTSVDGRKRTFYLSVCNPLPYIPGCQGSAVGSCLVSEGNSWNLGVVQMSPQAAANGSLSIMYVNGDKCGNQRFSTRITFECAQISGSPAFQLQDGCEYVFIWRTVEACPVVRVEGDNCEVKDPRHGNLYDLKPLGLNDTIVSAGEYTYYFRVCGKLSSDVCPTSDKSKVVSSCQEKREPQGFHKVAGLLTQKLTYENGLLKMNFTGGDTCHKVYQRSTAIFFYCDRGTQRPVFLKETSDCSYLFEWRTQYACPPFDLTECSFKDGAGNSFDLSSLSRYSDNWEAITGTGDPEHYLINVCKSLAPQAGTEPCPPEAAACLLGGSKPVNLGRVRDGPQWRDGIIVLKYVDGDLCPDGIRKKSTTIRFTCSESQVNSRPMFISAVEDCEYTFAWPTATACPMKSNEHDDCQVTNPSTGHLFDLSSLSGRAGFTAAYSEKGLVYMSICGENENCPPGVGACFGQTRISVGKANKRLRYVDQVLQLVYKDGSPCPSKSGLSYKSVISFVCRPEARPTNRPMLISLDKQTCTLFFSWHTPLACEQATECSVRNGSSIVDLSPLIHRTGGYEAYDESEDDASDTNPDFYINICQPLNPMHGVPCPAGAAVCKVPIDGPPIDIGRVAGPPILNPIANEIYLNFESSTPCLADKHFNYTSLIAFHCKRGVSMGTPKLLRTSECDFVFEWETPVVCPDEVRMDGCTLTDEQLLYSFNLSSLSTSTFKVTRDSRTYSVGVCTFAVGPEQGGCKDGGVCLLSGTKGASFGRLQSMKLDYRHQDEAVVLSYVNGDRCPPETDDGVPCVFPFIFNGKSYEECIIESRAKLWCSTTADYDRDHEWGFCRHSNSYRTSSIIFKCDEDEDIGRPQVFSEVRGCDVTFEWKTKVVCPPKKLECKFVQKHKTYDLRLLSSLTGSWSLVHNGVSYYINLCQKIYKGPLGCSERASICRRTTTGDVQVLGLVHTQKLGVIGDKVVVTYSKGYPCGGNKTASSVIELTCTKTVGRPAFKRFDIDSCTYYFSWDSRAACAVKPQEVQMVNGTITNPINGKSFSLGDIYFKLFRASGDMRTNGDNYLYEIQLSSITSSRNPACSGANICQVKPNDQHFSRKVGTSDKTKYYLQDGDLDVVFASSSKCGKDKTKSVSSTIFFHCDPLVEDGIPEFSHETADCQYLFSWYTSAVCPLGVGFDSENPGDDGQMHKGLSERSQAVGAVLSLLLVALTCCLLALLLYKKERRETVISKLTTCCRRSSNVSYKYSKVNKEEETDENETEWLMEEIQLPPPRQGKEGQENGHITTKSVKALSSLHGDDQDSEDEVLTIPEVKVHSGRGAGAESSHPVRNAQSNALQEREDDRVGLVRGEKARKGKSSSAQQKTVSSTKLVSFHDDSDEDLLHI
UniProt P61026: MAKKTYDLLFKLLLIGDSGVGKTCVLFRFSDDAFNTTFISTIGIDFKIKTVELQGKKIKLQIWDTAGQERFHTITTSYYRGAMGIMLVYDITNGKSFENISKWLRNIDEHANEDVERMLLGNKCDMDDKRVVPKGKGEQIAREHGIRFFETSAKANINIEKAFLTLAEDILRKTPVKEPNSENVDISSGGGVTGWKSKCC

T1: Myc-BioID-GGA2 (human), Q9UJY4
T1 chain: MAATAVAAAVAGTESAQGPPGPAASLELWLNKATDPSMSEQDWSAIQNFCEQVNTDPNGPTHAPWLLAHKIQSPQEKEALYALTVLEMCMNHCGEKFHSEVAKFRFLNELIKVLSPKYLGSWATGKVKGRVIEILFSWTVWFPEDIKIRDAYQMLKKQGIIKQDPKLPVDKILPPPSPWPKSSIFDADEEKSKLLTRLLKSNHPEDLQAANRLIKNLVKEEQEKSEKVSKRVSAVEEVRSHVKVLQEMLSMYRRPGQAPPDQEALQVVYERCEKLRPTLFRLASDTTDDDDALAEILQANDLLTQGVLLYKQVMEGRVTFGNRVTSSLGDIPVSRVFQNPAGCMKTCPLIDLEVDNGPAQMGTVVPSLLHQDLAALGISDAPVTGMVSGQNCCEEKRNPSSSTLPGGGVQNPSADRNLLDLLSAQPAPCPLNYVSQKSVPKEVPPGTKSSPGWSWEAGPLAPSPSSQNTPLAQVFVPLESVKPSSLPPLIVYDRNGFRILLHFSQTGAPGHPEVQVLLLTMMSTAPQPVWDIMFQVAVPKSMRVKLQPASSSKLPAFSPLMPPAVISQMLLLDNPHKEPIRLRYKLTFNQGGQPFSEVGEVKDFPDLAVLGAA


Target: Myc-BioID-GGA2 (human) (UniProt Q9UJY4)
Assay: proximity labelling
Conditions: not given

| Molecule | binding |
| --- | --- |
| clathrin (endogenous) (from UniProt Q00610 1-1675) | binds |
| ARF6 (endogenous) (from UniProt P62330 1-175) | binds |
| IGFR2 (endogenous) (from UniProt P11717 41-2491) (receptor) | binds |
| RAB10 (endogenous) (from UniProt P61026 1-200) | binds |
| RAB13 (endogenous) (protein, UniProt P51153 1-203) MAKAYDHLFKLLLIGDSGVGKTCLIIRFAEDNFNNTYISTIGIDFKIRTVDIEGKKIKLQVWDTAGQERFKTITTAYYRGAMGIILVYDITDEKSFENIQNWMKSIKENASAGVERLLLGNKCDMEAKRKVQKEQADKLAREHGIRFFETSAKSSMNVDEAFSSLARDILLKSGGRRSGNGNKPPSTDLKTCDKKNTNKCSLG | binds |

Target: T1, Myc-BioID-GGA2 (human), Q9UJY4
Assay: proximity labelling
Conditions: remark: other sources report otherwise

| Molecule | binding |
| --- | --- |
| GGA1 (endogenous), Q9UJY5 1-639 (protein) MEPAMEPETLEARINRATNPLNKELDWASINGFCEQLNEDFEGPPLATRLLAHKIQSPQEWEAIQALTVLETCMKSCGKRFHDEVGKFRFLNELIKVVSPKYLGSRTSEKVKNKILELLYSWTVGLPEEVKIAEAYQMLKKQGIVKSDPKLPDDTTFPLPPPRPKNVIFEDEEKSKMLARLLKSSHPEDLRAANKLIKEMVQEDQKRMEKISKRVNAIEEVNNNVKLLTEMVMSHSQGGAAAGSSEDLMKELYQRCERMRPTLFRLASDTEDNDEALAEILQANDNLTQVINLYKQLVRGEEVNGDATAGSIPGSTSALLDLSGLDLPPAGTTYPAMPTRPGEQASPEQPSASVSLLDDELMSLGLSDPTPPSGPSLDGTGWNSFQSSDATEPPAPALAQAPSMESRPPAQTSLPASSGLDDLDLLGKTLLQQSLPPESQQVRWEKQQPTPRLTLRDLQNKSSSCSSPSSSATSLLHTVSPEPPRPPQQPVPTELSLASITVPLESIKPSNILPVTVYDQHGFRILFHFARDPLPGRSDVLVVVVSMLSTAPQPIRNIVFQSAVPKVMKVKLQPPSGTELPAFNPIVHPSAITQVLLLANPQKEKVRLRYKLTFTMGDQTYNEMGDVDQFPPPETWGSL | binds |
| GGA3 (endogenous), Q9NZ52 1-723 (protein) MAEAEGESLESWLNKATNPSNRQEDWEYIIGFCDQINKELEGPQIAVRLLAHKIQSPQEWEALQALTVLEACMKNCGRRFHNEVGKFRFLNELIKVVSPKYLGDRVSEKVKTKVIELLYSWTMALPEEAKIKDAYHMLKRQGIVQSDPPIPVDRTLIPSPPPRPKNPVFDDEEKSKLLAKLLKSKNPDDLQEANKLIKSMVKEDEARIQKVTKRLHTLEEVNNNVRLLSEMLLHYSQEDSSDGDRELMKELFDQCENKRRTLFKLASETEDNDNSLGDILQASDNLSRVINSYKTIIEGQVINGEVATLTLPDSEGNSQCSNQGTLIDLAELDTTNSLSSVLAPAPTPPSSGIPILPPPPQASGPPRSRSSSQAEATLGPSSTSNALSWLDEELLCLGLADPAPNVPPKESAGNSQWHLLQREQSDLDFFSPRPGTAACGASDAPLLQPSAPSSSSSQAPLPPPFPAPVVPASVPAPSAGSSLFSTGVAPALAPKVEPAVPGHHGLALGNSALHHLDALDQLLEEAKVTSGLVKPTTSPLIPTTTPARPLLPFSTGPGSPLFQPLSFQSQGSPPKGPELSLASIHVPLESIKPSSALPVTAYDKNGFRILFHFAKECPPGRPDVLVVVVSMLNTAPLPVKSIVLQAAVPKSMKVKLQPPSGTELSPFSPIQPPAAITQVMLLANPLKEKVRLRYKLTFALGEQLSTEVGEVDQFPPVEQWGNL | binds |
